Measurements: PMC9132451
No constants are given. Whether binding was seen depends on the method and setting. In cells and extracts the contact can be indirect. Some results given as binding are weak or reduced against the parent protein; the word gives no strength.

Amino acid sequences for entries named in this document (tags omitted). Residues count along the entry.
UniProt P23818, residues 19-907: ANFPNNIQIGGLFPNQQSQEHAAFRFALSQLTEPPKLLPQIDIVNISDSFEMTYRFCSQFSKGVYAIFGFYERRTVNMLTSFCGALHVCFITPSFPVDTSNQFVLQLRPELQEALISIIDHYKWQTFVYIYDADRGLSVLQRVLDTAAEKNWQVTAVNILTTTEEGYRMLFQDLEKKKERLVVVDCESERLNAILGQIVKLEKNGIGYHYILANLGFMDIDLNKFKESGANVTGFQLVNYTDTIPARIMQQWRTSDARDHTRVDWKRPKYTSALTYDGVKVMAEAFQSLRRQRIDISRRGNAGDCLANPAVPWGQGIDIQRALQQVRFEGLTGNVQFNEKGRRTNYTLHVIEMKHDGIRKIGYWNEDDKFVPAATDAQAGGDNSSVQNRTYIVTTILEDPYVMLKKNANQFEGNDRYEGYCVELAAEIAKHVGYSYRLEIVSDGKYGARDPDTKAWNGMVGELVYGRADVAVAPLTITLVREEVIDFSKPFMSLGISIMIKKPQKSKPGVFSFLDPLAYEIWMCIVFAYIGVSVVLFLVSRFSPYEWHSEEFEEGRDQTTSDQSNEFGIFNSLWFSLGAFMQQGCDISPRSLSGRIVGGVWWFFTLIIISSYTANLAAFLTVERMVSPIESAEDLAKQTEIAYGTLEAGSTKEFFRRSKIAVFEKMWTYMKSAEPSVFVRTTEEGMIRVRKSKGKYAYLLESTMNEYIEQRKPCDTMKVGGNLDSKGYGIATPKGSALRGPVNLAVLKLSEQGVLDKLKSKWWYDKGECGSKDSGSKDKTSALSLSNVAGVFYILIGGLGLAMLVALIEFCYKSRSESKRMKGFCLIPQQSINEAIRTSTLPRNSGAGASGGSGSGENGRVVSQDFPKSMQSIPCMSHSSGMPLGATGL

Molecular target: GluA1 (AMPA-type glutamate receptor subunit), endogenous (mouse (endogenous in mouse brain)) (UniProt P23818)
Test: co-IP; endogenous proteins; 4 mg P3 (synaptosomal membrane fraction) lysate of mouse brain in 50 mM tris-HCl, 150 mM NaCl, 1% n-dodecyl β-D-maltoside; 3 μg antibody or IgG control, Protein A/G magnetic beads, 4°C; immunoblotting

- binding: binds
B1: clathrin assembly lymphoid myeloid leukemia protein (CALM), endogenous (protein, UniProt Q7M6Y3 1-660)
chain: MSGQSLTDRITAAQHSVTGSAVSKTVCKATTHEIMGPKKKHLDYLIQCTNEMNVNIPQLADSLFERTTNSSWVVVFKSLITTHHLMVYGNERFIQYLASRNTLFNLSNFLDKSGLQGYDMSTFIRRYSRYLNEKAVSYRQVAFDFTKVKRGADGVMRTMNTEKLLKTVPIIQNQMDALLDFNVNSNELTNGVINAAFMLLFKDAIRLFAAYNEGIINLLEKYFDMKKNQCKEGLDIYKKFLTRMTRISEFLKVAEQVGIDRGDIPDLSQAPSSLLDALEQHLASLEGKKIKDSTAASRATTLSNAVSSLASTGLSLTKVDEREKQAALEEEQARLKALKEQRLKELAKKPHTSLTTAASPVSTSAGGIMTAPAIDIFSTPSSSNSTSKLPNDLLDLQQPTFHPSVHAMSAAPQGASTWGDPFSATLDAVEDAIPSLNPFLTKSSGDVHLPIASDVSTFTTRTPTHEMFVGFSPSPVAQPHSSAGLNVDFESVFGNKSTNVAVDSGGFDELGGLLKPTVASQNQSLPVAKLPPNKLVSDDLDSSLANLVGNLGIGNGTTKNDVSWSQPGEKKLTGGSNWQPKVAPTTAWSAATMNGMHFPQYAPPVMAYPATTPTGMIGYGIPPQMGSVPVMTQPTLIYSQPVMRPPNPFGPVSGAQIQFM
